Results are given in words; binding and its absence hold for the method and conditions named. Binding seen in cells or lysates may run through a third protein. Some results given as binding are weak or reduced against the parent protein; the word gives no strength.

Protein sequences, listed by entry. Tags and fused reporters are not part of them.
UniProt Q68E01: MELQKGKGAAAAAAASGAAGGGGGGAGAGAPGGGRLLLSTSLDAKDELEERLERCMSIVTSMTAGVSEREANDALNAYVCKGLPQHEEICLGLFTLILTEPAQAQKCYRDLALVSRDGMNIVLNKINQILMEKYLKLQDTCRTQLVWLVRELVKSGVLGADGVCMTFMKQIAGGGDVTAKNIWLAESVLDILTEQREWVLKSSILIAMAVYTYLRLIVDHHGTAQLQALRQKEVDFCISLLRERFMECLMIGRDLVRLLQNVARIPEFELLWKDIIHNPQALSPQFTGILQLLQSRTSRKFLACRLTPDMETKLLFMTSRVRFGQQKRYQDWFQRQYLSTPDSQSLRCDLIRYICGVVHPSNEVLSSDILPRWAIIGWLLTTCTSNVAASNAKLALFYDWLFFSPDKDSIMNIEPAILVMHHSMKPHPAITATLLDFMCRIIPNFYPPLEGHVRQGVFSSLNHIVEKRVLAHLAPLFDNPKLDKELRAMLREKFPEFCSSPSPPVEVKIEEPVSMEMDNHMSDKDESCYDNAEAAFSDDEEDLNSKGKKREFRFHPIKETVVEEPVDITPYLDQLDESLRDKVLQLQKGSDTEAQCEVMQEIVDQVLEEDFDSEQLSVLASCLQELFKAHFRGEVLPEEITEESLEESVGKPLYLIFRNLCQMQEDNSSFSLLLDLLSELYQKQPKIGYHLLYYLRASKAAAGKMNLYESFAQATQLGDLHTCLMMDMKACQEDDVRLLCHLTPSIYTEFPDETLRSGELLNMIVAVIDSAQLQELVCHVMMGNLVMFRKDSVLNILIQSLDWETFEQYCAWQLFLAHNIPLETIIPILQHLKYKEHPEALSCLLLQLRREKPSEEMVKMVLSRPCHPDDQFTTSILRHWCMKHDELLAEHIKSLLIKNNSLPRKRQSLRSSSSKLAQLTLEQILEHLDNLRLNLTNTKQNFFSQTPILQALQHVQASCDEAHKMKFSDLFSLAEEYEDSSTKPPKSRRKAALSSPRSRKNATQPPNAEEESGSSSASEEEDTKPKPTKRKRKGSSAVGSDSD

This note sets out measurements from paper PMC10462637.

For this test, the target named is SFB-SOSSA (UniProt Q68E01). Description: co-IP; 293T cells co-transfected for 24 h, lysed and sonicated in NETN buffer (0.5% NP-40, 20 mM Tris-HCl pH 8.0, 0.1 mM NaCl, 1 mM EDTA, protease inhibitor); supernatant incubated with S protein beads for 4 h, washed with NETN; Western blotting. For orientation: In western blotting, separated proteins are transferred to a membrane and probed.

B1: SOSSB2-C (domain or fragment, UniProt Q96AH0 125-204)
chain: KGAQSEQKNNSMNSNMGTGTFGPVGNGVHTGPESREHQFSHAGRSNGRGLINPQLQGTASNQTVMTTISNGRDPRRAFKR
Regarding B1, the binding result was “no binding”.

B2: SOSSB2-N (domain or fragment, UniProt Q96AH0 1-125)
chain: MNRVNDPLIFIRDIKPGLKNLNVVFIVLEIGRVTKTKDGHEVRSCKVADKTGSITISVWDEIGGLIQPGDIIRLTRGYASMWKGCLTLYTGRGGELQKIGEFCMVYSEVPNFSEPNPDYRGQQNK
Regarding B2, the binding result was “binds”.
